Results: PubChem BioAssay AID1259415 (National Center for Advancing Translational Sciences (NCATS), 2018)
Out of some 410,000 compounds screened, about 18,000 (4.4%) were called active. This list was built around the results that the source calls inconclusive (neither active nor inactive); the mix of calls is not that of the screen. Cut-off read from the data, not from the text of the source: active = activity change below about -60%; inconclusive = no clear call, values can overlap the other calls; inactive = above about -39%.

Experiment: qHTS Assay for inhibitors of the human cytomegalovirus (HCMV)
Details: HFF cells, HCMV-luciferase reporter, 72 h; at 57.5 µM; stronger effect = lower value
Method in brief: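 Cell-based, HFFs, 1000 cells/well, 16 h 37C; cpds in DMSO + HCMV-luc, MOI 1 PFU/cell; 72 h 37C; OneGlo luminescence after 5 min RT; norm. to buffer vs Salinomycin 10uM.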
% is set by controls: 0 for no effect and ±100 for the full control effect.

Compound	activity change, negative = inhibition
O=C(NCCCN1CCOCC1)c1ccc2c(c1)N(Cc1cccc(Cl)c1)C(=O)c1ccccc1S2=O (stereo not drawn)	inconclusive: -50%
O=C(C[C@H]1CC[C@H]2[C@@H](COC[C@@H](O)CN2C(=O)c2cnccn2)O1)NCc1ccc(Oc2ccccc2)cc1	active: -67.9%
COc1cccc(CN2CC(C(=O)N(C)CC3CCOCC3)CCC2=O)c1 (stereo not drawn)	inconclusive: -59.9%
Cn1c(CN2CCOCC2)nc2cc(NC(=O)c3ccc(F)cc3)ccc21	active: -75.4%
CC(C)Oc1ccc(CNS(=O)(=O)c2csc(C(N)=O)c2)cc1	inconclusive: 0%
O=c1cc(CSc2nnc(COc3ccccc3)o2)c2ccccc2[nH]1	inactive: 2.36%
Cc1ccc(C)c(Nc2nc3ccc(C)cc3n3cnnc23)c1	inconclusive: -51.7%
Cc1ccc(NC(=O)N2CCC(CN3CCCCCC3)CC2)c(Cl)c1	inconclusive: -49.3%
CCN(CC)S(=O)(=O)c1cccc(C(=O)Nc2ccccc2)c1	inconclusive: -49.4%
CN(Cc1ccccc1)c1ccc(N2C(=O)CCCC2=O)cc1[N+](=O)[O-]	inconclusive: -40.3%
O=Cc1cn(-c2ccccc2)nc1-c1ccccc1	inconclusive: -52.9%
CCN1C(=O)C(CC(=O)NCCc2ccccc2)N(NC(=O)c2ccc(Br)cc2)C1=S (stereo not drawn)	inactive: -14.5%
O=C(Nc1ccc(F)cc1)c1ccc(S(=O)(=O)NCC2CCCO2)cc1 (stereo not drawn)	inconclusive: -57.8%
O=C(Nc1ccc(F)cc1)C1CCCO1 (stereo not drawn)	inconclusive: -55.7%
COc1ccccc1N(C)S(=O)(=O)c1ccc(C)c(C(=O)NC(C)c2ccccn2)c1 (stereo not drawn)	inconclusive: 0%
COc1ccc(N2CCN(C(=O)c3c(C)oc4nc(C)nc(N5CCCC5)c34)CC2)cc1	inactive: 18.7%
C=CCN(c1ccccc1)S(=O)(=O)c1cccc(C(=O)N2CC(C)CC(C)C2)c1 (stereo not drawn)	active: -85%
COC(=O)c1cc2ccccc2c(-c2c(OC)c(C(=O)OC)cc3ccccc23)c1OC	inconclusive: -48.2%
C=CCN1C(=O)c2ccccc2C1(O)Cc1ccccc1 (stereo not drawn)	inconclusive: -50.7%
CC(=O)c1c(C(C)=O)c(C)n(Cc2ccc(Cl)cc2)c1C	active: -70.7%
CCCc1nn2c(=O)cc(CSCC(=O)Nc3nnc(C(C)C)s3)nc2s1	inconclusive: -47.6%
Cn1nc([N+](=O)[O-])c(C(C#N)c2ccccn2)c(Cl)c1=O (stereo not drawn)	active: -97.3%

Looked up by structure from the entries so far:
Compound	activity change, negative = inhibition
O=c1cc(CSc2nnc(COc3ccccc3)o2)c2ccccc2[nH]1	inactive: 2.36%
Cc1ccc(NC(=O)N2CCC(CN3CCCCCC3)CC2)c(Cl)c1	inconclusive: -49.3%

Next entries

Compound	activity change, negative = inhibition
COc1ccccc1NS(=O)(=O)c1cc(NC(=O)C2CCC2)ccc1N1CCCCC1	inactive: -30.5%
CN(C(=O)COC(=O)c1ccc(S(=O)(=O)N2CCOCC2)cc1)c1ccccc1	inactive: 28.6%
CCC(C)CCCCNC1=NCCS1 (stereo not drawn)	inconclusive: -60%
CC(=O)Nc1ccc(/C=N/Nc2nncc3ccccc23)cc1	inactive: 90.7%
Cc1c(C)n(Cc2ccc(F)cc2)c2ccc(C(=O)NCCCN3CCOCC3)cc12	inconclusive: -51.8%
CCOc1ccccc1NC(=O)C(=O)N/N=C/c1cc(Br)ccc1O	active: -101%
S=C(NCCCc1ccccc1)Nc1ccccc1Cl	active: -60.4%
O=Cc1c(N2CCN(c3cccc(Cl)c3)CC2)nc2ccccn2c1=O	inactive: -31.6%
CCOc1cc(C(=O)NC)cc(OCC)c1OCC	inactive: -27.8%
Cc1ccc2nc(-c3ccc(NC(=O)CN4C(=O)c5ccccc5C4=O)cc3)sc2c1	inactive: 144%
Cc1ccc(C)c(NC(=O)CN(C)C(=O)COc2ccc3ccccc3c2)c1	inconclusive: -44.5%
COc1ccc(-c2nc(CCNC(=O)c3ccco3)cs2)cc1OC	active: -101%
COc1ccc(NS(=O)(=O)c2cccc(C(=O)N/N=C/c3ccc4c(c3)OCCO4)c2)cc1	inactive: -0.424%
O=C(NC(Cc1ccccc1)C(=O)O)/C(=C\c1ccccc1F)NC(=O)c1ccccc1 (stereo not drawn)	inconclusive: -41.7%
CC(=O)Nc1ccc(NC(=O)CSc2nnc(C)c(=O)[nH]2)cc1	inconclusive: -43.2%
O=C(Nc1ccc(N2CCCC2)c(Cl)c1)c1ccccc1F	inactive: 85.9%
COc1ccc(O)c(CN2CCCC(C(=O)Nc3cccc(-n4cccn4)c3)C2)c1 (stereo not drawn)	inconclusive: -41.5%
O=C1NC(=Nc2ccccc2)S/C1=C/c1cccnc1	inconclusive: -41.1%
O=C1C(Cc2ccccc2)Nc2ncnc(N3CCOCC3)c2N1Cc1ccc(Cl)cc1 (stereo not drawn)	inconclusive: -52.2%
CCc1ccc(C(O)(c2ccccc2OC)C(CN2CCOCC2)c2ccccc2)cc1 (stereo not drawn)	inconclusive: -41.4%
COc1ccc(C(C(=O)NCc2ccccc2)N(C(=O)c2snc(C(N)=O)c2N)c2ccccc2OC)cc1 (stereo not drawn)	inconclusive: -44.8%
